Source: patent US20090202520A1
These are yes or no findings as the source states them, for the method shown. Some entries that bind do so weakly or less than the wild type.

The chains behind the UniProt entries cited, without tags or fusion partners. Where a name states a change or a piece, a line headed by the entry shows the natural chain unless it says otherwise. Residues count along the entry.
UniProt P12314, residues 16-292: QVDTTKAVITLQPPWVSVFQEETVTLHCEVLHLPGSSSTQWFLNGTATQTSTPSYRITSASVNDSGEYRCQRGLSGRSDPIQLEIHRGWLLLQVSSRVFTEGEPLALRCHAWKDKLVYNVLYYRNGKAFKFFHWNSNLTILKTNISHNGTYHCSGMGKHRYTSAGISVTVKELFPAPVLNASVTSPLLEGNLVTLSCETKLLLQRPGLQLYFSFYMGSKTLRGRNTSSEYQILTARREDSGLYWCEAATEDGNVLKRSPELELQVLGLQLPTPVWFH
UniProt P12318: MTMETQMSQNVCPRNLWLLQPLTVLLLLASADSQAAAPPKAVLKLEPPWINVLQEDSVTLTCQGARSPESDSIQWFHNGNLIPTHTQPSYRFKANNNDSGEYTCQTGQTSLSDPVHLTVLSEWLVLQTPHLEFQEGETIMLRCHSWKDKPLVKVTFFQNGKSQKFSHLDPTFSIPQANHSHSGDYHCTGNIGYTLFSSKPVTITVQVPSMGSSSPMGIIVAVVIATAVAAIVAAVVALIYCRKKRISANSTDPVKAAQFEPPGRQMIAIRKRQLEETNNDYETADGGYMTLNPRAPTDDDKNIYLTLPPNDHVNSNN

Key:
[1] = target: serum amyloid P (SAP) (human), P02743; assay: SPR (Biacore X100), single cycle kinetics; SAP bound and briefly amine-coupled on CM5 chip, sFcγRIIIB flowed at five rising concentrations; human serum albumin reference cell subtracted; details: remark: other sources report otherwise
[2] = target: serum amyloid P (SAP) (human), P02743; assay: SPR, rank order of affinities; details: remark: other sources report otherwise
[3] = target: soluble recombinant FcγRI (sFcγRI) (UniProt P12314); assay: SPR sensorgram
[4] = target: soluble recombinant FcγRIIIB (sFcγRIIIB) (UniProt O75015); assay: SPR sensorgram
[5] = target: soluble recombinant FcγRI (sFcγRI) (UniProt P12314); assay: SPR, response at equilibrium against receptor concentration
[6] = target: soluble recombinant FcγRIIIB (sFcγRIIIB) (UniProt O75015); assay: as above
[7] = target: soluble recombinant FcγRIIA (H131 variant) (human) (UniProt P12318); assay: SPR, comparison of SAP and CRP affinities
[8] = target: soluble recombinant FcγRI (sFcγRI) (UniProt P12314); assay: SPR, comparison of SAP and CRP affinities
[9] = target: soluble recombinant FcγRIIIB (sFcγRIIIB) (UniProt O75015); assay: SPR, comparison of SAP and CRP affinities
[10] = target: soluble recombinant FcγRIIA (H131 variant) (human) (UniProt P12318); assay: SPR (Biacore X100), CRP captured on PC-KLH on CM5 chip
[11] = target: soluble recombinant FcγRI (sFcγRI) (UniProt P12314); assay: as above
[12] = target: soluble recombinant FcγRIIIB (sFcγRIIIB) (UniProt O75015); assay: as above

Measured: binding

B1: soluble recombinant FcγRIIIB (sFcγRIIIB), O75015 17-200 (receptor, UniProt O75015 17-200, looked up, not shown: small tags and cut ends)
chain: GMRTEDLPKAVVFLEPQWYSVLEKDSVTLKCQGAYSPEDNSTQWFHNENLISSQASSYFIDAATVNDSGEYRCQTNLSTLSDPVQLEVHIGWLLLQAPRWVFKEEDPIHLRCHSWKNTALHKVTYLQNGKDRKYFHHNSDFHIPKATLKDSGSYFCRGLVGSKNVSSETVNITITQGLAVSTIS
binds: [1] | [2]

B2: C-reactive protein (CRP) (ligand, human, UniProt P02741 19-224, looked up)
chain: QTDMSRKAFVFPKESDTSYVSLKAPLTKPLKAFTVCLHFYTELSSTRGYSIFSYATKRQDNEILIFWSKDIGYSFTVGGSEILFEVPEVTVAPVHICTSWESASGIVEFWVDGKPRVRKSLKKGYTVGAEASIILGQEQDSFGGNFEGSQSLVGDIGNVNMWDFVLSPDEINTIYLGGPFSPNVLNWRALKYEVQGEVFTKPQLWP
binds: [3] | [4] | [5] | [6] | [7] | [8] | [9] | [10] | [11] | [12]
